According to the supplement of paper PMC8551327:
Counter-ions that a name gives are not always drawn. The list shows a part of the results. Rule as the data show it: active = 1.25 or more and inactive = the rest. Many values rest on one well or one pass, so single values are uncertain.

System: Kcc2-LUC knock-in mouse primary cortical neurons (Kcc2 promoter reporter)
Test: Kcc2 promoter-driven luciferase activity relative to vehicle control (fold of vehicle (ratio)); higher = stronger Kcc2 promoter activation (Kcc2 expression enhancer)
Conditions: 100 nM; 48 h

| Structure (SMILES) | Kcc2 promoter-driven luciferase activity |
| --- | --- |
| O=S(=O)(c1cccc(N=C=S)c1)c1cccc(N=C=S)c1 [Bis(3-Isothiocyanatophenyl)sulphone] | inactive: 1.14 |
| CCN(CC)CCCC(C)Nc1c2ccc(Cl)cc2nc2ccc(OC)cc12 (centres undefined) [Quinacrine hydrochloride] | inactive: 0.33 |
| CCCCn1c2c(n(CCCC)c1=S)-c1c(n(CCCC)c(=S)n1CCCC)SSSS2 | inactive: 0.01 |
| COc1cc2c(c(O)c1OC)-c1c(cc(OC)c(OC)c1OC)C[C@@H](C)[C@@H](C)C2 [Schisanhenol] | inactive: 0.88 |
| Cn1cc(NC(=O)c2cc(NC(=O)c3cc(NC=O)cn3C)cn2C)cc1C(=O)NCCC(=N)N [Stallimycin] | inactive: 0.995 |
| O=C(OCC12CC3CC(CC(C3)C1)C2)c1ccc(NCc2cc(O)ccc2O)cc1 | active: 1.41 |
| S=c1[nH]cnc2nc[nH]c12 [Mercaptopurine] | inactive: 1.13 |
| CC(=O)c1sc2[n+](c1C)C(=O)/C(=C\c1ccccc1Cl)S2 | inactive: 1.04 |
| Cc1ccc(S(=O)(=O)c2ccc([N+](=O)[O-])o2)cc1 [2-Nitro-5-p-toluenesulfonylfuran] | inactive: 0.96 |
| C[C@H](CN1CC(=O)NC(=O)C1)N1CC(=O)NC(=O)C1 [Razoxane, (R)-Isomer] | inactive: 1.07 |
| CC(C)=CCC(OC(=O)C=C(C)C)C1=CC(=O)c2c(O)ccc(O)c2C1=O (centres undefined) [Arnebin 1] | inactive: 0.05 |
| COC(=O)C1C(O)CCC2CN3CCc4c([nH]c5ccccc45)C3CC21 (stereo not drawn) [beta-Yohimbine] | inactive: 1.09 |
| O=c1[nH]c(=O)n(C2CCCO2)cc1F [Tegafur, (R)-] | inactive: 1.24 |
| O=C(CCCN1CCC(O)(c2ccc(Cl)cc2)CC1)c1ccc(F)cc1 [Haloperidol] | inactive: 0.56 |
| O[C@H]1[C@H](O)[C@@H](O)[C@H](O)[C@@H](O)[C@H]1O [Inositol] | inactive: 0.68 |
| COCC(=O)OC1CCn2c1nc1c2C(=O)C(C)=C(NC(C)=O)C1=O (centres undefined) | inactive: 0.92 |
| COc1ccc2cccc(C(=N)c3ccc(C)c4c3CCC4)c2c1 [(7-Methoxy-1-naphthyl)-(7-methylindan-4-yl)methanimine] | inactive: 1.13 |
| CC(=O)OCC1=C[C@@H]2OC(=O)C3=CO[C@@H](O[C@@H]4O[C@H](CO)[C@@H](O)[C@H](O)[C@H]4O)[C@H]1[C@@H]32 [Asperuloside] | inactive: 1.09 |
| O=C1c2ccccc2C(=O)c2sc(Nc3ccc(Cl)c(Cl)c3)nc21 [2-(3,4-dichloroanilino)benzo[f][1,3]benzothiazole-4,9-dione] | inactive: 0.93 |
| CCN(CCO)CCNc1ccc(C)c2sc3ccccc3c(=O)c12 [Thioxanthen-9-one,hydrochloride] | inactive: 1 |

| Structure (SMILES) | Kcc2 promoter-driven luciferase activity |
| --- | --- |
| CO[C@H]1[C@@H](OC(=O)/C=C/C=C/C=C/C=C/C(=O)O)CC[C@@]2(CO2)[C@@H]1[C@@]1(C)O[C@@H]1CC=C(C)C [Fumagillin Dicyclohexylamine Salt] | inactive: 0.75 |
| CCOC(=O)C(C)NC(=O)N(C)C12CC3CC(CC(C3)C1)C2 (centres undefined) [Ethyl 2-[[1-adamantyl(methyl)carbamoyl]amino]propanoate] | inactive: 0.91 |
| CCCCCCCCCCCCCCCCOCC(O)CO (centres undefined) [Chimyl Alcohol] | inactive: 0.92 |
| Nc1nc(N)c(-c2cccc(C(F)(F)F)c2)c(Cc2cccc(C(F)(F)F)c2)n1 | inactive: 0.3 |
| O=C1C(CN2CCCCC2)CCCC1CN1CCCCC1 (centres undefined) [2,6-Bis(piperidin-1-ylmethyl)cyclohexan-1-one] | inactive: 0.81 |
| COc1ccc(C2C(C)C(=O)C(C)C(c3ccc(OC)cc3)N2N=O)cc1 (centres undefined) | inactive: 1.16 |
| O=C(Nc1ccc2c(c1)oc(=O)c1ccccc12)C(Cl)Cl [2,2-Dichloro-N-(6-oxobenzo[c]chromen-3-yl)acetamide] | inactive: 0.77 |
| CC1=C/C(=C2\N=C(N(C)C)SS2)C(C)=N1 | inactive: 1.1 |
| Nc1ncnc2c(C3OC(CO)C(O)C3O)[nH]nc12 (centres undefined) [Formycin A] | inactive: 0.92 |
| CC(C)=CC1C(C(=O)O)C1(C)C (centres undefined) [Chrysanthemic Acid] | inactive: 1.13 |
| Cc1nc(C(N)=S)sc1C(=O)CC(=O)C(=O)Nc1c(C(C)C)cccc1C(C)C | inactive: 1.11 |
| CC1(C)CC(Nc2ccc(Nc3ccccc3)cc2)CC(C)(C)N1 | active: 1.29 |
| Cc1ccc(C(=O)Nc2ccc(S(=O)(=O)O)c3cc(S(=O)(=O)O)cc(S(=O)(=O)O)c23)cc1NC(=O)c1cccc(NC(=O)Nc2cccc(C(=O)Nc3cc(C(=O)Nc4ccc(S(=O)(=O)O)c5cc(S(=O)(=O)O)cc(S(=O)(=O)O)c45)ccc3C)c2)c1 [Suramin] | inactive: 0.85 |
| CC(=O)C(N1CCCCC1)C(O)(C(F)(F)F)C(F)(F)F (centres undefined) | inactive: 1.21 |
| CC(C)C1=C(O)C2=C(C(=O)C1=O)C1(C)CCCC(C)(C)C1CC2O (centres undefined) [Horminon] | inactive: 1.09 |
| C=C1C[C@]23C[C@@]1(O)CC[C@H]2[C@@]12C=C[C@H](O)[C@@](C)(C(=O)O1)[C@H]2[C@@H]3C(=O)O [Gibberellic Acid] | inactive: 1.02 |
| Nc1ncnc2c1nc(Cl)n2[C@@H]1O[C@@H]2COP(=O)(O)O[C@H]2[C@H]1O | inactive: 0.79 |
| COc1ccc(N=C2C(=Nc3ccc(OC)cc3)N(c3ccc(N(C)C)cc3)C(=S)N2c2ccc(OC)cc2)cc1 | inactive: 1.01 |
| CCCC(=O)OCC1OC(n2ccc(N)nc2=O)C(OC(=O)CCC)C1OC(=O)CCC (centres undefined) [Cytosine, 2',3',5'-tributyrate] | inactive: 0.45 |

Structures from the list above with a CF3 group:

| Structure (SMILES) | Kcc2 promoter-driven luciferase activity |
| --- | --- |
| Nc1nc(N)c(-c2cccc(C(F)(F)F)c2)c(Cc2cccc(C(F)(F)F)c2)n1 | inactive: 0.3 |
| CC(=O)C(N1CCCCC1)C(O)(C(F)(F)F)C(F)(F)F (centres undefined) | inactive: 1.21 |
